# Values of other authors in patent US8329734B2, “Topical therapy for migraine” (AFGIN Pharma LLC, priority 2009, dated 2012).
# Some of these results come from one statement about several compounds together.
structure (smiles),measurement,value
CN(C)CCc1c[nH]c2ccc(C[C@H]3COC(=O)N3)cc12 [zolmitriptan],oral bioavailability,40-45%
